Experimental data published in the supplement of paper PMC8728848.
This is one part of the list.

What was measured:
Assay in all cases: glycan array binding signal (z-score within array); higher = stronger binding
Details in all cases: glycan notation: IUPAC condensed, linker removed
Neu5Ac(a2-6)Gal = molecular target: Neu5Ac(a2-6)Gal
How it was run: (§1)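 Glycan array data came from 3228 arrays in the Consortium for Functional Glycomics database, and only arrays with an available protein sequence were kept. Glycan names were put into IUPAC-condensed notation, and columns mapping to the same glycan were averaged. The binding signal is a within-array Z-score, averaged across arrays of one protein sequence run at different concentrations or buffers and across linkers. A negative Z-score can be read as non-binding.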

[1] = molecular target: Neu5Ac(a2-6)Gal(b1-3)GlcNAc(b1-3)[Gal(b1-4)GlcNAc(b1-6)]Gal(b1-4)Glc
How it was run: as §1

Neu5Ac(a2-6)Gal(b1-4)Glc = molecular target: Neu5Ac(a2-6)Gal(b1-4)Glc
How it was run: as §1

[2] = molecular target: Neu5Ac(a2-6)Gal(b1-4)GlcNAc
How it was run: as §1

[3] = molecular target: Neu5Ac(a2-6)Gal(b1-4)GlcNAc(b1-2)Man
How it was run: as §1

[4] = molecular target: Neu5Ac(a2-6)Gal(b1-4)GlcNAc(b1-2)Man(a1-3)Man(b1-4)GlcNAc(b1-4)GlcNAc
How it was run: as §1

[5] = molecular target: Neu5Ac(a2-6)Gal(b1-4)GlcNAc(b1-2)Man(a1-3)[Gal(b1-4)GlcNAc(b1-2)Man(a1-6)]Man(b1-4)GlcNAc(b1-4)GlcNAc
How it was run: as §1

[6] = molecular target: Neu5Ac(a2-6)Gal(b1-4)GlcNAc(b1-2)Man(a1-3)[GlcNAc(b1-2)Man(a1-6)]Man(b1-4)GlcNAc(b1-4)GlcNAc
How it was run: as §1

[7] = molecular target: Neu5Ac(a2-6)Gal(b1-4)GlcNAc(b1-2)Man(a1-3)[GlcNAc(b1-4)][Neu5Ac(a2-6)Gal(b1-4)GlcNAc(b1-2)Man(a1-6)]Man(b1-4)GlcNAc(b1-4)GlcNAc
How it was run: as §1

[8] = molecular target: Neu5Ac(a2-6)Gal(b1-4)GlcNAc(b1-2)Man(a1-3)[Man(a1-6)]Man(b1-4)GlcNAc(b1-4)GlcNAc
How it was run: as §1

[9] = molecular target: Neu5Ac(a2-6)Gal(b1-4)GlcNAc(b1-2)Man(a1-3)[Neu5Ac(a2-3)Gal(b1-4)GlcNAc(b1-2)Man(a1-6)]Man(b1-4)GlcNAc(b1-4)GlcNAc
How it was run: as §1

[10] = molecular target: Neu5Ac(a2-6)Gal(b1-4)GlcNAc(b1-2)Man(a1-3)[Neu5Ac(a2-6)Gal(b1-4)GlcNAc(b1-2)Man(a1-6)]Man(b1-4)GlcNAc(b1-4)GlcNAc
How it was run: as §1

[11] = molecular target: Neu5Ac(a2-6)Gal(b1-4)GlcNAc(b1-2)Man(a1-3)[Neu5Ac(a2-6)Gal(b1-4)GlcNAc(b1-2)Man(a1-6)]Man(b1-4)GlcNAc(b1-4)[Fuc(a1-6)]GlcNAc
How it was run: as §1

[12] = molecular target: Neu5Ac(a2-6)Gal(b1-4)GlcNAc(b1-2)Man(a1-6)Man(b1-4)GlcNAc(b1-4)GlcNAc
How it was run: as §1

[13] = molecular target: Neu5Ac(a2-6)Gal(b1-4)GlcNAc(b1-2)Man(a1-6)[Gal(b1-4)GlcNAc(b1-2)Man(a1-3)]Man(b1-4)GlcNAc(b1-4)GlcNAc
How it was run: as §1

[14] = molecular target: Neu5Ac(a2-6)Gal(b1-4)GlcNAc(b1-2)Man(a1-6)[GlcNAc(b1-2)Man(a1-3)]Man(b1-4)GlcNAc(b1-4)GlcNAc
How it was run: as §1

[15] = molecular target: Neu5Ac(a2-6)Gal(b1-4)GlcNAc(b1-2)Man(a1-6)[Man(a1-3)]Man(b1-4)GlcNAc(b1-4)GlcNAc
How it was run: as §1

[16] = molecular target: Neu5Ac(a2-6)Gal(b1-4)GlcNAc(b1-2)[Neu5Ac(a2-6)Gal(b1-4)GlcNAc(b1-4)]Man(a1-3)[GlcNAc(b1-4)][Neu5Ac(a2-6)Gal(b1-4)GlcNAc(b1-2)[Neu5Ac(a2-6)Gal(b1-4)GlcNAc(b1-6)]Man(a1-6)]Man(b1-4)GlcNAc(b1-4)GlcNAc
How it was run: as §1

[17] = molecular target: Neu5Ac(a2-6)Gal(b1-4)GlcNAc(b1-2)[Neu5Ac(a2-6)Gal(b1-4)GlcNAc(b1-4)]Man(a1-3)[GlcNAc(b1-4)][Neu5Ac(a2-6)Gal(b1-4)GlcNAc(b1-4)Man(a1-6)]Man(b1-4)GlcNAc(b1-4)GlcNAc
How it was run: as §1

[18] = molecular target: Neu5Ac(a2-6)Gal(b1-4)GlcNAc(b1-2)[Neu5Ac(a2-6)Gal(b1-4)GlcNAc(b1-6)]Man(a1-6)[Neu5Ac(a2-6)Gal(b1-4)GlcNAc(b1-2)Man(a1-3)][GlcNAc(b1-4)]Man(b1-4)GlcNAc(b1-4)GlcNAc
How it was run: as §1

[19] = molecular target: Neu5Ac(a2-6)Gal(b1-4)GlcNAc(b1-3)Gal(b1-3)GlcNAc
How it was run: as §1

[20] = molecular target: Neu5Ac(a2-6)Gal(b1-4)GlcNAc(b1-3)Gal(b1-4)GlcNAc
How it was run: as §1

[21] = molecular target: Neu5Ac(a2-6)Gal(b1-4)GlcNAc(b1-3)Gal(b1-4)GlcNAc(b1-2)Man(a1-3)[Neu5Ac(a2-6)Gal(b1-4)GlcNAc(b1-3)Gal(b1-4)GlcNAc(b1-2)Man(a1-6)]GalNAc
How it was run: as §1

B1: AT5G24760(45) (Arabidopsis thaliana), Q8LEB2 (protein)
chain: MSASSSSFEQPQVITCNAAVAWRAGEPLVMEEVEVSPPQPLEIRIKVVCTSLCRSDLSAWESQSLLPRIFGHEAAGIVESIGEGVTEFEKGDHVLAVFTGECGSCRHCISGKSNMCQVLGMERKGLMHSDQKTRFSIKGKPVYHYCAVSSFSEYTVVHSGCAVKVDPLAPLHKICLLSCGVAAGLGAAWNVADVQKGSSVVIFGLGTVGLSVAQGAKLRGAAQILGVDINPAKAEQAKTFGVTDFINSNDLSEPIPQVIKRMTGGGADFSFECVGDTGIATTALQSCSDGWGMTVTLGVPKAKPEVSAHYGLFLSGKSLKGTLFGGWKPKSDLPSLIDKYMNKEIMIDEFITHNLSFDEINKAFVLMREGKCLRCVLHMPK
- glycan array binding signal (z-score) (Neu5Ac(a2-6)Gal): -0.781
- glycan array binding signal (z-score) [1]: -0.504
- glycan array binding signal (z-score) (Neu5Ac(a2-6)Gal(b1-4)Glc): -0.362
- glycan array binding signal (z-score) [2]: -0.075
- glycan array binding signal (z-score) [3]: -0.402
- glycan array binding signal (z-score) [4]: -0.824
- glycan array binding signal (z-score) [5]: -1.29
- glycan array binding signal (z-score) [6]: -1
- glycan array binding signal (z-score) [7]: -0.951
- glycan array binding signal (z-score) [8]: -0.703
- glycan array binding signal (z-score) [9]: -0.094
- glycan array binding signal (z-score) [10]: -0.223
- glycan array binding signal (z-score) [11]: -0.446
- glycan array binding signal (z-score) [12]: -0.961
- glycan array binding signal (z-score) [13]: -0.902
- glycan array binding signal (z-score) [14]: -0.952
- glycan array binding signal (z-score) [15]: -0.271
- glycan array binding signal (z-score) [16]: -0.308
- glycan array binding signal (z-score) [17]: -1.01
- glycan array binding signal (z-score) [18]: -0.502
- glycan array binding signal (z-score) [19]: 0.751
- glycan array binding signal (z-score) [20]: -0.877
- glycan array binding signal (z-score) [21]: 0.016
